Data taken from the supplement of paper PMC11732987, “Enantioselective OTUD7B fragment discovery through chemoproteomics screening and high-throughput optimisation” (Communications Chemistry, 2025).
Some of the results follow. The data scatter; read single values as rough.

Sequences of proteins named here, by UniProt entry; tags and fusion partners are left off. A change or cut given only in a name is not applied to a line headed by its entry.
UniProt P11216: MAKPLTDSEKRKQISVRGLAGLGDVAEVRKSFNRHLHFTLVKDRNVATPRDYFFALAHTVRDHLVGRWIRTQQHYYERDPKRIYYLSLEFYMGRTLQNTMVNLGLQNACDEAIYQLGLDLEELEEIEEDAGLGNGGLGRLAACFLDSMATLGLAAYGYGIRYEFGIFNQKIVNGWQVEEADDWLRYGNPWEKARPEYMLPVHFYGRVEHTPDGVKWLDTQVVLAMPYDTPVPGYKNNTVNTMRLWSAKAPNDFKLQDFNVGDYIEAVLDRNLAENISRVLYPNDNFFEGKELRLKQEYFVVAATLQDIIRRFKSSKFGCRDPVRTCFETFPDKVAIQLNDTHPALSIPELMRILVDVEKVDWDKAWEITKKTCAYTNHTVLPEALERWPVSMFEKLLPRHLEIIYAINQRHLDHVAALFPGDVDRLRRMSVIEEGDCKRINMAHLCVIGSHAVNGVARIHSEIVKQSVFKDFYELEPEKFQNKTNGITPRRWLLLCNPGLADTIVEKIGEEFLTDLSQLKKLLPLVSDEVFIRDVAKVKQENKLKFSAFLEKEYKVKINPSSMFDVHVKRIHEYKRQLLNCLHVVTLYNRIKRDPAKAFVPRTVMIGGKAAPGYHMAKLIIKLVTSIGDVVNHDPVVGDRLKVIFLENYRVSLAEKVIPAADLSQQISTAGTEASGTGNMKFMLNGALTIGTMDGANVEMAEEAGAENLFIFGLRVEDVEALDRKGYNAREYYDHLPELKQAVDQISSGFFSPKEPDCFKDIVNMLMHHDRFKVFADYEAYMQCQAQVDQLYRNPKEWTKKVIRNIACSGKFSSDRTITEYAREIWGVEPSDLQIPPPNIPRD
UniProt O60216: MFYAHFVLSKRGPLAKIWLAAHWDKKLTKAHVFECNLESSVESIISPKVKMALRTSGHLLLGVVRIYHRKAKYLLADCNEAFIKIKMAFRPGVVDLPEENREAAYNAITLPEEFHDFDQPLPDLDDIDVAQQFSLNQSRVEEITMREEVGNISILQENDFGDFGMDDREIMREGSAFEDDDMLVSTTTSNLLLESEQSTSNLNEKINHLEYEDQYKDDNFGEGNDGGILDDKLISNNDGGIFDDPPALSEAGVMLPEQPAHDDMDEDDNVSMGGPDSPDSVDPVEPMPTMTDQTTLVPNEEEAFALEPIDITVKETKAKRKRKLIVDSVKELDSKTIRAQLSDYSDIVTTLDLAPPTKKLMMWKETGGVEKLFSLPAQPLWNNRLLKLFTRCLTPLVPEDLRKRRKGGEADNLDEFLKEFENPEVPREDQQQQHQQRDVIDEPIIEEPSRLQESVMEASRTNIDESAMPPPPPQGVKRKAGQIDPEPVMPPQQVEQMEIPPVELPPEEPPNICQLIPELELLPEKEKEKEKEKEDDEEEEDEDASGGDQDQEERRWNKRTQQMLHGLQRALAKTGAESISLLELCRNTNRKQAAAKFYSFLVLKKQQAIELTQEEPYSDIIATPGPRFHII
UniProt Q9Y617: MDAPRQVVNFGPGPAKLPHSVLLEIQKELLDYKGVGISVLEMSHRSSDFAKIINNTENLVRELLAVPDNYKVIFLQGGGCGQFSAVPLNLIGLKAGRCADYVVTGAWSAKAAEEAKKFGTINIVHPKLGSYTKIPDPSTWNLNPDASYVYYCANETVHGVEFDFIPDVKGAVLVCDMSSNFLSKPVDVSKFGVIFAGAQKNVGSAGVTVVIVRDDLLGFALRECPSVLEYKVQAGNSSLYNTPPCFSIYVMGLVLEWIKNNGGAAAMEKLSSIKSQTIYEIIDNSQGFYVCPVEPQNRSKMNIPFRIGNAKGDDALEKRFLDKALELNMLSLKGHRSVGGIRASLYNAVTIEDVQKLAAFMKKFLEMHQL
UniProt Q12923: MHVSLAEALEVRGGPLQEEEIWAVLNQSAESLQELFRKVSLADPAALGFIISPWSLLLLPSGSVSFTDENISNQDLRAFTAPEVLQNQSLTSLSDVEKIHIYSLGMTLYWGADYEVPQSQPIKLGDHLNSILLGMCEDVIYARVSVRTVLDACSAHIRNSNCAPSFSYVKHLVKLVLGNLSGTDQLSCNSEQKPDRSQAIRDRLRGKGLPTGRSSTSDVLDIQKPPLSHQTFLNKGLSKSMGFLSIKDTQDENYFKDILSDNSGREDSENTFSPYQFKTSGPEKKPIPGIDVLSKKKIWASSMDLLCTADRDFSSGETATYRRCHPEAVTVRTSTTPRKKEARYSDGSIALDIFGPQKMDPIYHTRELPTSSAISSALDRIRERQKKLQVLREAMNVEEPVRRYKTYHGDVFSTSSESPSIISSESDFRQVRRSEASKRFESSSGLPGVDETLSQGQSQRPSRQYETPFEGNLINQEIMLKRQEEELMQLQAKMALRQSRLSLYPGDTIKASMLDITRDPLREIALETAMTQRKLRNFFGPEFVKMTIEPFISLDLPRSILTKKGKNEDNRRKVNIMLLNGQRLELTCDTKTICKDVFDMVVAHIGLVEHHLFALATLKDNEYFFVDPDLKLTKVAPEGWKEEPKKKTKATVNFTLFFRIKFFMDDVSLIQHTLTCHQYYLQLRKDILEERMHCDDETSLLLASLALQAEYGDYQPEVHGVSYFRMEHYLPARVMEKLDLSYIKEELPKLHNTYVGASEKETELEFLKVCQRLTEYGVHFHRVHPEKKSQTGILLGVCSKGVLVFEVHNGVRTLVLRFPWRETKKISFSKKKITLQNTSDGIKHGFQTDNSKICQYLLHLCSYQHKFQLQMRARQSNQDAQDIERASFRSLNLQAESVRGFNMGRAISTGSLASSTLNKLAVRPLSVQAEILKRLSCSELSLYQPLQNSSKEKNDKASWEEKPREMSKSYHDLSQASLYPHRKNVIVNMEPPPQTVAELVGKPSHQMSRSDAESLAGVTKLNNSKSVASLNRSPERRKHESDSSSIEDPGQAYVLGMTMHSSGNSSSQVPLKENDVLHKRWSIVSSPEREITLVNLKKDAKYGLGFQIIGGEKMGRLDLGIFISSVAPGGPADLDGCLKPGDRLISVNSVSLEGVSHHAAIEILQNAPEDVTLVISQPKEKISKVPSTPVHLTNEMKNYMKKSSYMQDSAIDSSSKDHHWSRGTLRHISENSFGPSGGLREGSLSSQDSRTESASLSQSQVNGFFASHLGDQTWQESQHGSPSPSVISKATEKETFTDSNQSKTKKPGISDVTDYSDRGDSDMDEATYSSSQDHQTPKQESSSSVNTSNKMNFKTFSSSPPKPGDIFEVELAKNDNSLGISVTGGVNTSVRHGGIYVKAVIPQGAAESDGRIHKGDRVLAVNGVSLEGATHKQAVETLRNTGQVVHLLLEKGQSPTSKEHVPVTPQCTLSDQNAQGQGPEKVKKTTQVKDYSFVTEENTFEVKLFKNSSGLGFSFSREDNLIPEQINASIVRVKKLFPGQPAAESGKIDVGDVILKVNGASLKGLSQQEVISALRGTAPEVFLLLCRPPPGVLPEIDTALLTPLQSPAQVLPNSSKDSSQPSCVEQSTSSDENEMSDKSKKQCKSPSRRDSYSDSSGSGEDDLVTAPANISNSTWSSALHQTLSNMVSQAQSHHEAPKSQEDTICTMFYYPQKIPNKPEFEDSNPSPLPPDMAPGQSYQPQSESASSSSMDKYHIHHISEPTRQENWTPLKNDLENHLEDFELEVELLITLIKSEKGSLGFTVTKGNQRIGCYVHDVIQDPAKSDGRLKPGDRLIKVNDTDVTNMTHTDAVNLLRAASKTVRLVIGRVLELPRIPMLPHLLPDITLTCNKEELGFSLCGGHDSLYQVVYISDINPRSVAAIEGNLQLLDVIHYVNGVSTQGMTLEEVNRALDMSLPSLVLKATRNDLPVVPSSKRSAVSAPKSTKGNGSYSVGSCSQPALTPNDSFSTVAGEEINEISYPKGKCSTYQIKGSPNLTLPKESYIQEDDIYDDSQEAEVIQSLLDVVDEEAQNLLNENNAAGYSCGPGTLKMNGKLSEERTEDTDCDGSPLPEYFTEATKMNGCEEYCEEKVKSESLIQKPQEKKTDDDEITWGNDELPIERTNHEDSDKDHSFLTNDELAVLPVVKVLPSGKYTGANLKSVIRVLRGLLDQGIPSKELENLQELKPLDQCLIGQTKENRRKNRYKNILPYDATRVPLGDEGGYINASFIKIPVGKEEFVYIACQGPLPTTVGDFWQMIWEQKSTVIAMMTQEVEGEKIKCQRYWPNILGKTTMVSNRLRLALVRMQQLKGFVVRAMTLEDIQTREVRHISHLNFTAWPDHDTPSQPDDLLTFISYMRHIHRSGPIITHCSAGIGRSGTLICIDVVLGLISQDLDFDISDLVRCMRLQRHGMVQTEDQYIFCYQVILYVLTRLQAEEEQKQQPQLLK
UniProt Q5THK1: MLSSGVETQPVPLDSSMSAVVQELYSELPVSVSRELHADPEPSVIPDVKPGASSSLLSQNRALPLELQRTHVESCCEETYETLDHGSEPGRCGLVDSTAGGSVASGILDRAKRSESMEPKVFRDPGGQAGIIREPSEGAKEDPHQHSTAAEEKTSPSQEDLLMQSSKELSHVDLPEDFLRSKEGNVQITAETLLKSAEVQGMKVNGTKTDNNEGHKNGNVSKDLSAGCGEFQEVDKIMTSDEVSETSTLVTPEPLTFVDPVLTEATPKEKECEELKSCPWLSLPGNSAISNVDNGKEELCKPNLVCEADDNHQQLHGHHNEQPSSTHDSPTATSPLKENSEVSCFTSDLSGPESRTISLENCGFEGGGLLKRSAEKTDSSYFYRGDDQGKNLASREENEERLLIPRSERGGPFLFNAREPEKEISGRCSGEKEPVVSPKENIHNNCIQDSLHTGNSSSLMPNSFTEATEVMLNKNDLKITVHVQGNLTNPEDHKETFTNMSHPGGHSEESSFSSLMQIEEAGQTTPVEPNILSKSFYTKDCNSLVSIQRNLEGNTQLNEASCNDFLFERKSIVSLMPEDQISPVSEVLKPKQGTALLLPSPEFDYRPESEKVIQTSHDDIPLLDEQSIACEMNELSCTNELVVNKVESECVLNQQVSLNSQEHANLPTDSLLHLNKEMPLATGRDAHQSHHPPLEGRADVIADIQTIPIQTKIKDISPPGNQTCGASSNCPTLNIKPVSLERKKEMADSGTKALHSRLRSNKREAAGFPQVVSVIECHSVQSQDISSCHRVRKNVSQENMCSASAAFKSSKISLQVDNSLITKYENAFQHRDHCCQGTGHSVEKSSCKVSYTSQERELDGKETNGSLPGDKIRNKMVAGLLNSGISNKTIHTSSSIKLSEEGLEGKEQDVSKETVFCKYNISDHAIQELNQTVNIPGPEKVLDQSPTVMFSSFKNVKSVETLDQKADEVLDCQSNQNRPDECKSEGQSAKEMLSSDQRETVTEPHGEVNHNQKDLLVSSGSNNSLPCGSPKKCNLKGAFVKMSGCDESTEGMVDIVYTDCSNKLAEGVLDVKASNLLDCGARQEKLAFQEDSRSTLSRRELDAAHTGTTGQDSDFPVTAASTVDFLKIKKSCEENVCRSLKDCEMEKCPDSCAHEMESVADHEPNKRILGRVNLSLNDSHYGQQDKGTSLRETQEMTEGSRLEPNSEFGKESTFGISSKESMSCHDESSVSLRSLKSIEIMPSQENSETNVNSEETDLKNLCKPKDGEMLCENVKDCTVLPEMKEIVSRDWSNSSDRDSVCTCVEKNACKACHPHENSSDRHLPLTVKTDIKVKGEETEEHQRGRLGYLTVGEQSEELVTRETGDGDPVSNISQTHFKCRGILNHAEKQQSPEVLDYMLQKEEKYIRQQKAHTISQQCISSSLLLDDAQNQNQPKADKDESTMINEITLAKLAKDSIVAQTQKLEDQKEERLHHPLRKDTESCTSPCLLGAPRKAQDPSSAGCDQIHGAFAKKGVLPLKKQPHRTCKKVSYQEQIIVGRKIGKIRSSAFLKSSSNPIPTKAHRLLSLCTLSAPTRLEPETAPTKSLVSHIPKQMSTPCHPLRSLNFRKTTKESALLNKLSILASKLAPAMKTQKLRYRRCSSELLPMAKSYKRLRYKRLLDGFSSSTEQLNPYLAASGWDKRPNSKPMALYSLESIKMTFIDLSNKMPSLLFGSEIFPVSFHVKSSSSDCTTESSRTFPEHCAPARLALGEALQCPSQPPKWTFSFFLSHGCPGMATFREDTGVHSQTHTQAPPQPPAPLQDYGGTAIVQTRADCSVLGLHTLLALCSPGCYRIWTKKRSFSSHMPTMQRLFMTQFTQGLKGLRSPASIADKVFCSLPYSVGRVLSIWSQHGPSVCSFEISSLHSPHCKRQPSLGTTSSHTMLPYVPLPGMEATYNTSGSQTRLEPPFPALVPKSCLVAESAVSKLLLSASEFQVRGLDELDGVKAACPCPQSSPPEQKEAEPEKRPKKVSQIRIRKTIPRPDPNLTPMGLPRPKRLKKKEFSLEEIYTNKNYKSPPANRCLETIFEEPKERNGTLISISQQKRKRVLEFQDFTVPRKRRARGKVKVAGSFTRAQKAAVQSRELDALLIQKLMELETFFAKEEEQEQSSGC

Each target was assayed with ClCC(=O)N[C@@H]1CCCc2ccccc12 (assay: log2 mean competition ratio of IA-DTB cysteine labelling (DMSO/compound) (log2 ratio); higher = stronger cysteine engagement by compound). Conditions: 50 µM; treatment time: 4 h; cell line lysate: HEK293T.
Experimental: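 IA-DTB competitive cysteine chemoproteomics in HEK293T RIPA lysate. Lysates were treated with compound 29 or 30 at 50 or 200 µM for 4 h, then IA-DTB (500 µM, 1 h), trypsin-digested, NeutrAvidin-enriched and analysed by diaPASEF. Competition ratio = intensity DMSO / intensity compound (n=4 treated, n=64 DMSO); binding: mean log2 CR ≥ 1 and p ≤ 0.05 plus QC filters. Target is the cysteine site.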

Row | Target | log2 mean competition ratio
1 | RAD54L C20 (UniProt Q92698) | 0.0738
2 | PTPRU C1085 | 0.724
3 | RAB7A C143 (UniProt P51149) | 0.186
4 | RAB11FIP1 C1028 (UniProt Q6WKZ4) | 0.184
5 | PYGB C326 (UniProt P11216) | 0.0626
6 | RAD21 C78 (UniProt O60216) | 0.705
7 | PRRC2B C1101 | 0.125
8 | RAD50 C1302 | 0.515
9 | PSAT1 C224 (UniProt Q9Y617) | 0.105
10 | PSMC3IP C107 (UniProt Q9P2W1) | 0.23
11 | RAB8A C123 (UniProt P61006) | -0.393
12 | PSMD5 C133 (UniProt Q16401) | -0.243
13 | RABGGTA C532 (UniProt Q92696) | -0.243
14 | RAB2B C154 (UniProt Q8WUD1) | -0.0224
15 | PTPN13 C2024 (UniProt Q12923) | 0.219
16 | RAD51C C124 (UniProt O43502) | -0.148
17 | PRRC2B C819 | 0.00534
18 | PRR14L C1271 (UniProt Q5THK1) | 0.0303
19 | RAD50 C102 | 0.0267
20 | PRR14L C1640 (UniProt Q5THK1) | -0.0392

Same assay, conditions: 200 µM; treatment time: 4 h; cell line lysate: HEK293T

Row | Target | log2 mean competition ratio
21 | RAD54L C20 (UniProt Q92698) | -0.0615
22 | PTPRU C1085 | -0.0162
23 | RAB7A C143 (UniProt P51149) | -0.0459
24 | RAB11FIP1 C1028 (UniProt Q6WKZ4) | -0.00231
25 | PYGB C326 (UniProt P11216) | -0.0326
26 | RAD21 C78 (UniProt O60216) | -0.013
27 | PRRC2B C1101 | 0.143
28 | RAD50 C1302 | 0.159
29 | PSAT1 C224 (UniProt Q9Y617) | -0.279
30 | PSMC3IP C107 (UniProt Q9P2W1) | 0.141
31 | RAB8A C123 (UniProt P61006) | -0.0275
32 | PSMD5 C133 (UniProt Q16401) | -0.0284
33 | RABGGTA C532 (UniProt Q92696) | 0.0781
34 | RAB2B C154 (UniProt Q8WUD1) | -0.0772
35 | PTPN13 C2024 (UniProt Q12923) | 0.0299
36 | RAD51C C124 (UniProt O43502) | 0.0774
37 | PRRC2B C819 | 0.0523
38 | PRR14L C1271 (UniProt Q5THK1) | 0.0739
39 | RAD50 C102 | -0.0384
40 | PRR14L C1640 (UniProt Q5THK1) | 0.269
